# Measured values as given in the supplement of paper PMC8497498.
# The list shows a part of the results. The data scatter; read single values as rough.
# Experiments:
# Details in all cases: 10 µM
# [1] = system: Plasmodium vivax liver stage (primary human hepatocyte culture); assay: hypnozoite quantity inhibition (% inhibition); higher = more active against hypnozoites
# [2] = system: Plasmodium vivax liver stage (primary human hepatocyte culture); assay: schizont net growth area inhibition (% inhibition); higher = more active against liver schizonts
# [3] = system: primary human hepatocytes; assay: hepatic nuclei reduction relative to DMSO (100 - % of negative control); higher = more toxic to hepatocytes
# [4] = assay mode: Prophylactic (treated before or shortly after infection), fixed day 6 post-infection
# [5] = assay mode: Radical Cure (treated from day 5 post-infection for 3 days), fixed day 8 post-infection
structure (smiles),measurement,setting,value
CN(C)c1ccc(C(O)(c2ccc(N(C)C)cc2)c2ccc(N(C)C)cc2)cc1,hypnozoite quantity inhibition,[1]; [4],70.1
same,hypnozoite quantity inhibition,[1]; [5],-6.2
same,schizont net growth area inhibition,[2]; [4],95.6
same,schizont net growth area inhibition,[2]; [5],57.8
same,hepatic nuclei reduction,[3]; [4],61%
same,hepatic nuclei reduction,[3]; [5],10%
CCOc1cc(Cl)c(C(C)NC(=O)c2ccccc2)cc1OCC (stereo not given),hypnozoite quantity inhibition,[1]; [4],12
same,hypnozoite quantity inhibition,[1]; [5],34.6
same,schizont net growth area inhibition,[2]; [4],54.4
same,schizont net growth area inhibition,[2]; [5],-70.9
same,hepatic nuclei reduction,[3]; [4],0%
same,hepatic nuclei reduction,[3]; [5],-6%
CC(C)c1ccc(CNCC(O)c2ccccc2)cc1 (stereo not given),hypnozoite quantity inhibition,[1]; [4],10.6
same,hypnozoite quantity inhibition,[1]; [5],19.8
same,schizont net growth area inhibition,[2]; [4],2.5
same,schizont net growth area inhibition,[2]; [5],-14.6
same,hepatic nuclei reduction,[3]; [4],-2%
same,hepatic nuclei reduction,[3]; [5],0%
c1ccc(Oc2ccc(-c3cc(N4CCNCC4)[nH]n3)cc2)cc1,hypnozoite quantity inhibition,[1]; [4],34
same,hypnozoite quantity inhibition,[1]; [5],-51
same,schizont net growth area inhibition,[2]; [4],-115
same,schizont net growth area inhibition,[2]; [5],20.2
same,hepatic nuclei reduction,[3]; [4],2%
same,hepatic nuclei reduction,[3]; [5],3%
COc1cccc(Nc2nc(NCCO)c3ccccc3n2)c1,hypnozoite quantity inhibition,[1]; [4],-37.9
same,hypnozoite quantity inhibition,[1]; [5],-0.8
same,schizont net growth area inhibition,[2]; [4],-79.8
same,schizont net growth area inhibition,[2]; [5],-30.8
same,hepatic nuclei reduction,[3]; [4],-2%
same,hepatic nuclei reduction,[3]; [5],-5%

# Part of the list above, as tab-separated lines:
structure (smiles)	measurement	setting	value
c1ccc(Oc2ccc(-c3cc(N4CCNCC4)[nH]n3)cc2)cc1	schizont net growth area inhibition	[2]; [4]	-115
same	schizont net growth area inhibition	[2]; [5]	20.2
